According to US12251422B2, “Compositions and methods for treating neurological and other disorders” (Rush University Medical Center, priority 2018, dated 2025):

System: 5×FAD Tg mice
Test: General locomotor activities of 5×FAD Tg mice
Assay type: in vivo, mouse
Details: 0.1 mg/kg body wt/2 d intranasal, 30 d

| SMILES | gross motor activities (number of movements, horizontal activity, rest time, stereotypy) |
| --- | --- |
| CC[C@H](C)[C@H](NC(=O)[C@H](CCCCN)NC(=O)[C@@H](NC(=O)[C@H](CCC(N)=O)NC(=O)[C@H](CCCNC(=N)N)NC(=O)[C@@H](N)CC(=O)O)[C@@H](C)CC)C(=O)N[C@@H](Cc1c[nH]c2ccccc12)C(=O)N[C@@H](Cc1ccccc1)C(=O)N[C@@H](CCC(N)=O)C(=O)N[C@@H](CC(N)=O)C(=O)N[C@@H](CCCNC(=N)N)C(=O)N[C@@H](CCCNC(=N)N)C(=O)N[C@@H](CCSC)C(=O)N[C@@H](CCCCN)C(=O)N[C@@H](Cc1c[nH]c2ccccc12)C(=O)N[C@@H](CCCCN)C(=O)N[C@@H](CCCCN)C(=O)N1CCC[C@H]1C(=O)NCC(=O)N[C@@H](Cc1c[nH]c2ccccc12)C(=O)N[C@@H](Cc1c[nH]cn1)C(=O)N[C@@H](CCC(N)=O)C(=O)N[C@@H](CC(=O)O)C(=O)O [mTIDM, drqikiwfqnrrmkwkkPGWHQD] | did not modulate |
| CC[C@H](C)[C@H](NC(=O)[C@H](CCCCN)NC(=O)[C@@H](NC(=O)[C@H](CCC(N)=O)NC(=O)[C@H](CCCNC(=N)N)NC(=O)[C@@H](N)CC(=O)O)[C@@H](C)CC)C(=O)N[C@@H](Cc1c[nH]c2ccccc12)C(=O)N[C@@H](Cc1ccccc1)C(=O)N[C@@H](CCC(N)=O)C(=O)N[C@@H](CC(N)=O)C(=O)N[C@@H](CCCNC(=N)N)C(=O)N[C@@H](CCCNC(=N)N)C(=O)N[C@@H](CCSC)C(=O)N[C@@H](CCCCN)C(=O)N[C@@H](Cc1c[nH]c2ccccc12)C(=O)N[C@@H](CCCCN)C(=O)N[C@@H](CCCCN)C(=O)N1CCC[C@H]1C(=O)NCC(=O)N[C@@H](C)C(=O)N[C@@H](Cc1c[nH]cn1)C(=O)N[C@@H](CCC(N)=O)C(=O)N[C@@H](CCCCN)C(=O)O [wtTIDM, drqikiwfqnrrmkwkkPGAHQK] | did not modulate |
